This is an account of results in PubChem BioAssay AID2685 (National Center for Advancing Translational Sciences (NCATS), 2010).

Each structure is given as a SMILES string. This is one part of the list. Further columns of the screen follow, without active or inactive calls. Most of these compounds were active or inconclusive in the main read-out, so they are no random draw. Words in brackets tell the shape of the fitted curve; partial curves, single points and poor fits give uncertain potencies.

This assay can be described thus: qHTS Assay for Lipid Storage Modulators in Drosophila S3 Cells.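 On cell number change: cells counted by Cell Tracker Red CMTPX staining in the red channel.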 Conditions: BODIPY lipid droplet fluorescence, 18-24 h; for cell number change: measured here: cell count max response, cells fed with added oleic acid. Put shortly: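 Drosophila S3 cells got compounds at several concentrations plus oleic acid (400 uM solution). Laser-scanning cytometry with 488 nm excitation read lipid droplets at 500-530 nm and cells at 575-640 nm. Percent activity was relative to 20 uM Triacsin C.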
(Quantitative high-throughput screening tests each substance at several concentrations.)

Where [1] appears, read: measured here: lipid fluorescence (Fed channel) AC50, cells fed with added oleic acid.
The mark [2] stands for this setting: measured here: cell number channel AC50, cells fed with added oleic acid.

On to `COc1ccc(NS(=O)(=O)c2cccc(C(=O)N3CCN(c4ccccc4O)CC3)c2)cc1`, for which the concentration at half-maximal activity (AC50) (in general, the concentration at which the activity in the assay is half-maximal) under setting [1] is 4.61 µM [rising, partial curve].
With `O=C(c1ccccc1)N1CCN2C(=O)c3ccccc3C12c1ccc(Cl)cc1` (stereo unspecified), the cell number change is -8.17%. The AC50 under setting [1] is 3.66 µM [rising, partial curve].
With `O=C(NCCN1CCOCC1)c1ccc(Cl)c([N+](=O)[O-])c1`, the cell number change is 32.8%. Under setting [2], the AC50 is 29.1 µM [rising, single point].
`CS(=O)(=O)N(CCC(=O)O)Cc1ccccc1`: the cell number change was -0.787%. Under setting [1], the AC50 was 0.0103 µM [falling, full curve].
For `CCOC(=O)N1CCN(Cc2cccs2)CC1`, the cell number change is -1.65%. For the same compound, the AC50 under setting [1] is 4.11 µM [falling, single point].
Consider `CN(Cc1cn(C)nc1-c1ccc(Oc2ccccc2)cc1)Cc1cnc2ccccn12`, for which the cell number change was -20.4%.
Take `COC(=O)[C@@H]1C[C@@]2(O)[C@@H](O)[C@@H](O)[C@@H](O)C[C@H]2N1Cc1ccc(-c2ccccc2)cc1`: the cell number change is -24.2%. Besides, the half-maximal activity concentration (AC50) under setting [1] was 1.84 µM [falling, full curve, poor fit].
Turning to `Cc1ccc(S(=O)(=O)N2CCN(C(=O)CSc3nnc(C)s3)C2)cc1`, the cell number change was -26.3%. In addition, the AC50 under setting [2] was 0.326 µM [falling, full curve]. Moreover, the AC50 under setting [1] is 1.3 µM [falling, full curve].
`O=C(CN1CCN(Cc2ccccc2)CC1)N1CCCc2ccccc21`: the cell number change was 19.2%. In addition, the concentration at half-maximal activity (AC50) under setting [1] was 5.17 µM [rising, partial curve, poor fit].
Regarding `O=C1NCCCc2c1oc1ccc(O)cc21`, the cell number change was -45%. Further, the AC50 under setting [2] is 14.6 µM [falling, partial curve, poor fit].
With `CC(C)CNC(=O)COCc1cc(-c2ccc3c(c2)OCO3)on1`, the AC50 under setting [1] was 2.31 µM [rising, single point].
In the case of `CC/C(=N\NC(=O)c1c(C)nc2ccccn12)c1ccc(Cl)cc1`, the cell number change was -38.9%. In addition, the AC50 under setting [1] is 29.1 µM [rising, single point].
As for `Cc1ccc(N2CC(C(=O)Nc3cccc(F)c3)CC2=O)cc1` (stereo unspecified), the cell number change amounted to 1.52%. In addition, the half-maximal activity concentration (AC50) under setting [1] is 0.731 µM [falling, full curve, poor fit].
As to `CC12C(=O)N(c3ccccn3)C(=O)C1C1C=CC2C1` (stereo unspecified), the cell number change was determined as 1.66%. In addition, under setting [1], the AC50 was 3.26 µM [falling, full curve, poor fit].
For `O=C(NCCCN1CCCC1=O)c1cccc(NS(=O)(=O)c2ccccc2)c1`, the cell number change came out at 17.2%. In addition, the AC50 under setting [1] was 29.1 µM [rising, single point].
On to `CN(Cc1ccccc1)C(=O)c1ccc(NC(=O)Cc2cccc(NC(=O)C3CCCN(C(=O)CCc4ccccc4)C3)c2)cc1` (stereo unspecified), for which the cell number change was -39.2%. Further, under setting [2], the AC50 is 14.6 µM [falling, single point]. For the same compound, the AC50 under setting [1] is 7.31 µM [falling, single point].
